Data published in publication PMC7145534, “Are the intrinsically disordered linkers involved in SSB binding to accessory proteins?” (Nucleic Acids Research, 2019).

Legend:
E. coli RecO [1] = assay: ITC of SSB tetramers (apo) binding to RecO; set-up: species or system Escherichia coli
Procedure: (§1) The concentrations were determined thereafter.

RecO = details: 0.35 μM tetramer + 3.5 μM RecO, BTP pH 7.0, 200 mM NaCl, 25°C
E. coli RecO [2] = assay: ITC of SSB tetramer–(dT)70 complexes binding to RecO; set-up: species or system Escherichia coli; details: in complex with (dT)70, 25°C, BTP pH 7.0, 200 mM NaCl; N fixed to 4
DNA Pol III (χ) = assay: ITC of SSB-Ct peptides binding to the χ subunit; set-up: species or system Escherichia coli
Procedure: as §1

E. coli RecO [3] = assay: ITC of SSB-Ct peptides binding to RecO; set-up: species or system Escherichia coli
Procedure: as §1

[4] = apo, 10°C, BTP pH 7.0, 200 mM NaCl, N fixed to 4
[5] = pH 8.0, 50 mM NaCl, 25°C, K, N, ΔH floated
[6] = apo, 25°C, BTP pH 7.0, 200 mM NaCl, N fixed to 4

B1: SSBΔ120-166 tetramer (natural protein, E. coli, UniProt P0AGE0 1-178, looked up)
chain: MASRGVNKVILVGNLGQDPEVRYMPNGGAVANITLATSESWRDKATGEMKEQTEWHRVVLFGKLAEVASEYLRKGSQVYIEGQLRTRKWTDQSGQDRYTTEVVVNVGGTMQMLGGRQGGGPPMDFDDDIPF
notes: E. coli SSB with residues 120-166 of the IDL deleted, acidic tip kept; All three PXXP motifs deleted; only nine residues of the IDL left; Used apo and in complex with (dT)70
In the case of B1, the “TΔS°” value (E. coli RecO [1]; [4]) is reported as 0.4 ± 0.1 kcal/mol, the “ΔG°” value (E. coli RecO [1]; [4]) is reported as -8.5 ± 0.1 kcal/mol and the “ΔH* (ΔH per tip)” value (E. coli RecO [1]; [4]) is reported as -8.1 ± 0.1 kcal/mol. For the same molecule, the “N (stoichiometry)” value (E. coli RecO [1]; apo, 10°C, pH 7.0, 200 mM NaCl, N floated (Figure S5)) was 4.03 ± 0.19, the “heat capacity change, ΔCp” value (E. coli RecO [1]; apo, pH 7.0, 200 mM NaCl, from ΔH at 10°C and 25°C) was roughly 0.54 kcal/mol⋅deg and the “sedimentation coefficient of SSB peak in presence of RecO” value (“sedimentation coefficient of SSB peak” below) (RecO) was 1.6 S. The “TΔS°” value (E. coli RecO [2]) was 3.3 ± 0.1 kcal/mol, the “ΔG°” value (E. coli RecO [2]) was -9.3 ± 0.1 kcal/mol and the “ΔH* (ΔH per tip)” value (E. coli RecO [2]) was -6.0 ± 0.1 kcal/mol.

B2: P65: SSB-Ct peptide, C-terminal 65 amino acids of SSB; acidic tip and the full IDL (peptide)
peptide: GGRQGGGAPAGGNIGGGQPQGGWGQPQQPQGGNQFSGGAQSRPQQSAPAAPSNEPPMDFDDDIPF
B2 was tested, and the “ΔG°” value (DNA Pol III (χ); Table S2 replicate 1) was -7.9 ± 0.1 kcal/mol, the ΔH (DNA Pol III (χ); Table S2 replicate 1) was -10.2 ± 0.9 kcal/mol and the “ΔG°” value (DNA Pol III (χ); Table S2 replicate 2) was -7.5 ± 0.1 kcal/mol. For the same molecule, the “ΔH (enthalpy change)” value (DNA Pol III (χ); [5]) was -10.2 ± 0.9 kcal/mol, the “TΔS°” value (PriA; Table S2 replicate 1) was -0.7 ± 0.7 kcal/mol and the ΔH (PriA; Table S2 replicate 1) was -8.5 ± 0.7 kcal/mol. For the same molecule, the “TΔS°” value (PriA; Table S2 replicate 2) was -1.2 ± 1.0 kcal/mol, the “ΔG°” value (PriA; Table S2 replicate 2) was -7.5 ± 0.1 kcal/mol and the ΔH (PriA; Table S2 replicate 2) was -8.7 ± 1.0 kcal/mol. The “ΔH (enthalpy change)” value (PriA; [5]) was -8.5 ± 0.7 kcal/mol, the ΔH (E. coli RecO [3]; Figure S3, 15°C, pH 8.0, 50 mM, N floated) was -2.58 ± 0.02 kcal/mol and the ΔH (E. coli RecO [3]; Figure S3, 37°C, pH 8.0, 50 mM, N floated) was -9.04 ± 0.87 kcal/mol. For the same molecule, the ΔH (E. coli RecO [3]; Figures S3/S4a, 25°C, pH 8.0, 50 mM NaCl, N floated) was -5.18 ± 0.23 kcal/mol, the “TΔS°” value (E. coli RecO [3]; Table S2 replicate 1) was 4.9 ± 0.1 kcal/mol and the ΔH (E. coli RecO [3]; Table S2 replicate 1) was -4.9 ± 0.1 kcal/mol. The “TΔS°” value (E. coli RecO [3]; Table S2 replicate 2) was 6.4 ± 0.2 kcal/mol, the “ΔG°” value (E. coli RecO [3]; Table S2 replicate 2) was -10.5 ± 0.1 kcal/mol and the ΔH (E. coli RecO [3]; Table S2 replicate 2) was -4.1 ± 0.1 kcal/mol. The “TΔS°” value (E. coli RecO [3]; Table S2 replicate 3) was 5.5 ± 0.1 kcal/mol, the “ΔG°” value (E. coli RecO [3]; Table S2 replicate 3) was -10.3 ± 0.1 kcal/mol and the ΔH (E. coli RecO [3]; Table S2 replicate 3) was -4.8 ± 0.1 kcal/mol. For the same molecule, the “ΔH (enthalpy change)” value (E. coli RecO [3]; [5]) was -4.9 ± 0.1 kcal/mol.

B3: SSBΔ130-166: SSB tetramer variant with IDL residues 130-166 deleted, retaining the acidic tip (protein)
chain: MASRGVNKVILVGNLGQDPEVRYMPNGGAVANITLATSESWRDKATGEMKEQTEWHRVVLFGKLAEVASEYLRKGSQVYIEGQLRTRKWTDQSGQDRYTTEVVVNVGGTMQMLGGRQGGGAPAGGNIGGGPPMDFDDDIPF
In the case of B3, the “TΔS°” value (E. coli RecO [1]; Table S2 replicate 1) is reported as 7.1 ± 0.6 kcal/mol, the “ΔG°” value (E. coli RecO [1]; Table S2 replicate 1) is reported as -8.9 ± 0.1 kcal/mol and the ΔH (E. coli RecO [1]; Table S2 replicate 1, ΔH per tip) is reported as -1.8 ± 0.6 kcal/mol. The “TΔS°” value (E. coli RecO [1]; Table S2 replicate 2) was 6.4 ± 0.1 kcal/mol, the “ΔG°” value (E. coli RecO [1]; Table S2 replicate 2) was -8.7 ± 0.1 kcal/mol and the “ΔG°” value (E. coli RecO [1]; [6]) was -8.5 kcal/mol and -8.5 ± 0.1 kcal/mol. For the same molecule, the “sedimentation coefficient of SSB peak” value (RecO) was 1.5 S, the “TΔS°” value (E. coli RecO [2]) was 4.7 ± 0.1 kcal/mol and the “ΔG°” value (E. coli RecO [2]) was -9.2 ± 0.1 kcal/mol.

B4: SSBΔ151-166 tetramer (natural protein, E. coli, UniProt P0AGE0 1-178, looked up)
chain: MASRGVNKVILVGNLGQDPEVRYMPNGGAVANITLATSESWRDKATGEMKEQTEWHRVVLFGKLAEVASEYLRKGSQVYIEGQLRTRKWTDQSGQDRYTTEVVVNVGGTMQMLGGRQGGGAPAGGNIGGGQPQGGWGQPQQPQGGNQFSGGPPMDFDDDIPF
notes: E. coli SSB with residues 151-166 of the IDL deleted, acidic tip kept; Two C-terminal PXXP motifs deleted; Used apo and in complex with (dT)70
With B4 the “TΔS°” value (E. coli RecO [1]; [6]) was 1.9 ± 0.1 kcal/mol, the “ΔG°” value (E. coli RecO [1]; [6]) was -8.9 ± 0.1 kcal/mol and the “sedimentation coefficient of SSB peak” value (RecO) was 1.6 S. The “TΔS°” value (E. coli RecO [2]) was 0.3 ± 0.1 kcal/mol and the “ΔG°” value (E. coli RecO [2]) was -9.0 ± 0.1 kcal/mol.

“And” between values parts separate entries of the source, which are not always exact repeats. Identical values can stand only once. Like-named read-outs stand apart in the source and are kept apart here.
